From publication PMC2682205, “Cdc7p-Dbf4p Regulates Mitotic Exit by Inhibiting Polo Kinase” (PLoS Genetics, 2009) come the findings set out here.

These are yes or no findings as the source states them, for the method shown. For some assays here: Binding can be weak; no strength is given. Tags and fused reporters may be left off the sequences shown.

Assay [1] addresses T1, GBD fusion to Dbf4p residues 67–109 (budding yeast (S. cerevisiae)) (UniProt P32325).
T1 sequence: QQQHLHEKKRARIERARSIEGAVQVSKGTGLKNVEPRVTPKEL
The experiment in a line: two-hybrid; GBD-DBF4 baits and GAD-CDC5 preys co-transformed, 10-fold serial dilutions spotted on SCM–Trp–Leu–His with 2 mM 3AT, 30°C, 2 to 3 days (Figure 1A, C).

Assay [2] concerns the target T2, GBD fusion to the Dbf4p BRCT-like region alone (residues 110–227) (budding yeast (S. cerevisiae)) (UniProt P32325).
T2 sequence: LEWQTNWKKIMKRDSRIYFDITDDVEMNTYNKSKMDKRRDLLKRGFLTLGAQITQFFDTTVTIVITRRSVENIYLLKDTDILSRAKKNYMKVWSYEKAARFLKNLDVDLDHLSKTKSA
The assay is described as above.

Assay [3] concerns the target T3, Gal4 DNA binding domain (GBD) fusion to Dbf4p_(67–227) (budding yeast (S. cerevisiae)) (UniProt P32325).
T3 sequence: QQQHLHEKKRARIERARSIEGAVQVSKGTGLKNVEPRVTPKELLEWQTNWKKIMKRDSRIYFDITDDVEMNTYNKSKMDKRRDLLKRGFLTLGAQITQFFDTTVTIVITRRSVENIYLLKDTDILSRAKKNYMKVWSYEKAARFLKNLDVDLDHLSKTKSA
Described as above.

Assay [4] concerns the target T4, GBD fusion to full length Dbf4p (budding yeast (S. cerevisiae)) (UniProt P32325).
T4 sequence: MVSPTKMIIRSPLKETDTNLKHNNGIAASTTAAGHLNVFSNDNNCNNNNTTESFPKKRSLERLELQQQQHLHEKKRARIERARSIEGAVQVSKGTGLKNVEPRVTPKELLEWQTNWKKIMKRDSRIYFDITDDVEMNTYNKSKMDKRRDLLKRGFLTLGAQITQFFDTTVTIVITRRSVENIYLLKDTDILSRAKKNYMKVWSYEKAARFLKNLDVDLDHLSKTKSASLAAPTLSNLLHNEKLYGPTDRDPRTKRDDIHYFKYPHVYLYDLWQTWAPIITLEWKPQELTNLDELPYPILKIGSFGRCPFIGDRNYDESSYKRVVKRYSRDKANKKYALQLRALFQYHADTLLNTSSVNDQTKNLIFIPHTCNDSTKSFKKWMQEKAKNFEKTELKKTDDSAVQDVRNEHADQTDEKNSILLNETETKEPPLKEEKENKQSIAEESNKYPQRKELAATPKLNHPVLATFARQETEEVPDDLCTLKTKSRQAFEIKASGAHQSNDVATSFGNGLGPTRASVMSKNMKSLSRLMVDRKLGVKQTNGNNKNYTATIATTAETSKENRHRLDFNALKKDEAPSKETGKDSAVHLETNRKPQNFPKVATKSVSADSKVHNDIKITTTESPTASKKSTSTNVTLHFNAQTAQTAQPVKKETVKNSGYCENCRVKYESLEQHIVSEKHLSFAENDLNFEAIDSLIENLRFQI
The assay can be described thus: two-hybrid; GBD-DBF4 baits (full-length context) and GAD-CDC5 prey, 10-fold serial dilutions spotted on SCM–Trp–Leu–His with 0.5 mM 3AT, 30°C, 2 to 3 days (Figure 1B).

Assay [5] addresses T3, Gal4 DNA binding domain (GBD) fusion to Dbf4p_(67–227) (budding yeast (S. cerevisiae)). The assay can be described thus: two-hybrid; screen of a S. cerevisiae two-hybrid library with pCG60 (GBD-Dbf4p 67-227) in PJ69-4a; medium without Trp, Leu, His with 2 mM 3-aminotriazole, 30°C; HIS3 and ADE2 reporters, confirmed by retransformation.

For the substance “GAL4 activation domain fusion to the polo-box domain (PBD) of Cdc5p (S. cerevisiae) (domain or fragment)”, the binding entry is recorded as “binds” in assay [1]; “no binding” in assay [2]; “binds” in assay [3]; “binds” in assay [4]; “binds” in assay [5].
